The target of this assay is UGT76G1 (S. rebaudiana) (UniProt Q6VAB4). The assay is described as follows: SEC; gel filtration of purified His-tagged UGT76G1; the final gel filtration step was in 10 mM HEPES-NaOH buffer pH 7.2, 150 mM NaCl, 2 mM DTT; both purified.

These are yes or no findings as the source states them, for the method shown.

B1: UGT76G1 (enzyme, UniProt Q6VAB4 1-458)
chain: MENKTETTVRRRRRIILFPVPFQGHINPILQLANVLYSKGFSITIFHTNFNKPKTSNYPHFTFRFILDNDPQDERISNLPTHGPLAGMRIPIINEHGADELRRELELLMLASEEDEEVSCLITDALWYFAQSVADSLNLRRLVLMTSSLFNFHAHVSLPQFDELGYLDPDDKTRLEEQASGFPMLKVKDIKSAYSNWQILKEILGKMIKQTKASSGVIWNSFKELEESELETVIREIPAPSFLIPLPKHLTASSSSLLDHDRTVFQWLDQQPPSSVLYVSFGSTSEVDEKDFLEIARGLVDSKQSFLWVVRPGFVKGSTWVEPLPDGFLGERGRIVKWVPQQEVLAHGAIGAFWTHSGWNSTLESVCEGVPMIFSDFGLDQPLNARYMSDVLKVGVYLENGWERGEIANAIRRVMVDEEGEYIRQNARVLKQKADVSLMKGGSSYESLESLVSYISSL
Take B1: the binding entry is reported as “no binding”.

The values are drawn from PMC6642264, “Hydrophobic recognition allows the glycosyltransferase UGT76G1 to catalyze its substrate in two orientations” (Nature Communications, 2019).
